Data on 1 compound can be found in patent US8822509B2, “Pain-relieving compositions and uses therefor” (priority 2006, dated 2014).

Entries after “also recorded” stand apart in the source; their conditions may differ.

For test [1], the system named is tactile allodynia in 14-18 week STZ-diabetic rats. Description: Naloxone or ODQ pre-treatment before test article in 14-18 week STZ-diabetic rats, von Frey PWT. The format is in vivo, Wistar rats. The conditions noted are these: naloxone 1.25 μmol/kg s.c. 10 min before Compound 1 800 pmol/kg or morphine 7 μmol/kg s.c.
The subject of test [2] is non-diabetic control rats. In words: Tolerance development (7-day continuous s.c. infusion, 2-day washout) in non-diabetic control rats, von Frey PWT. Format: in vivo. The conditions noted are these: second s.c. bolus of morphine after washout.

Consider `CN1CC[C@]23c4c5ccc(O)c4O[C@H]2[C@@H](O)C=C[C@H]3[C@H]1C5` [morphine, reference compound], for which, in test [1], the “effect of naloxone pre-treatment on anti-allodynia (ΔPWT AUC)” value is “completely abolished the anti-allodynic effects; also recorded: attenuated by naloxone”. Moreover, the “ΔPWT AUC” value in test [2] is recorded as 0.0 (±0.2) g·h.
